# Reference: PubChem BioAssay AID445 (National Center for Advancing Translational Sciences (NCATS), 2006)
# The list shows a part of the results. These are further read-outs of the screen, such as a control signal, another cell line or another target. No call is given for them. Most of these compounds were active or inconclusive in the main read-out, so they are no random draw. Words in brackets tell the shape of the fitted curve; partial curves, single points and poor fits give uncertain potencies.
# Experiment: IkB Signaling
# Details: ABC-DLBCL IkBa-CBG/CBR dual luciferase ratio (green luciferase fused to IkBa over red control in OCI-Ly3 lymphoma cells), 4 h; measured here: control luc red channel unless noted
# Outline: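 Luminescence ratio of IκBα-fused green versus native red beetle luciferase in OCI-Ly3 cells, 4 h post-doxycycline with compound; red signal alone, scaled from basal (0%) to zero light (-100%), flagged nonspecific or cytotoxic effects.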
row,SMILES,AC50
1,COc1cccc(CNC(=O)CCCCCn2c(=O)[nH]c3cc(OC)c(OC)cc3c2=O)c1,"15.8 µM [falling, single point]"
2,CN(Cc1ccccc1)C(=O)c1cc(-c2cccc(Cl)c2)on1,"31.6 µM [falling, single point]"
3,CS(=O)(=O)N(CCc1ccccc1)CC(=O)N1CCN(Cc2ccc3c(c2)OCO3)CC1,"12.6 µM [falling, partial curve]"
4,COc1cc(C(CC(=O)Nc2cc(C)ccn2)N2Cc3ccccc3C2=O)cc(OC)c1OC (stereo not given),"0.0398 µM [rising, full curve]"
5,COc1ccc2c(c1)c1c(c(=O)n(-c3cccc(C)c3)c(=O)n1CC(=O)NCC1CCCO1)n2C (stereo not given),"0.1 µM [rising, full curve]"
6,Cc1cccc(Cc2c(C)nc3nc(SCc4ccccc4F)nn3c2C)c1,"12.6 µM [falling, partial curve]"
7,CCOc1ccccc1C(=O)Nc1ccc(S(=O)(=O)Nc2ncccn2)cc1,"12.6 µM [rising, partial curve, poor fit]"
8,COc1ccc(-c2noc(CCC(=O)Nc3cc(OC)ccc3OC)n2)cc1,"15.8 µM [falling, partial curve]"
9,CCCCn1c(N2CCC(Cc3ccccc3)CC2)nc2c1c(=O)[nH]c(=O)n2C,"20 µM [falling, partial curve]"
10,O=c1/c(=C/c2ccccn2)sc2nc3ccccc3n12,"0.0316 µM [falling, full curve, poor fit]"
11,CCCc1nc(SCC(=O)N2CCC(Cc3ccccc3)CC2)c2c(=O)n(C)c(=O)n(C)c2n1,"2.51 µM [falling, full curve]"
12,CC(C)c1cc(-c2nc(-c3ccc(Br)cc3)no2)n[nH]1,"25.1 µM [falling, single point]"
13,COc1ccc2[nH]c(=O)c(CN(C(=O)c3cccc(Cl)c3)c3cccc(C)c3)cc2c1,"10 µM [falling, partial curve, poor fit]"
14,CCc1ccc(NC(=O)Cn2cnc3nc4c(cc3c2=O)CCCC4)cc1,"1 µM [falling, full curve, poor fit]"
15,CCOC(=O)c1cc2c(=O)n3ccccc3nc2n(CC(C)C)c1=NC(=O)C(C)(C)Oc1ccc(Cl)cc1,"0.0794 µM [falling, single point]"
16,Cc1ccc(C(=O)N2CC(=O)Nc3ccc(Br)cc3C2c2ccc(F)cc2)cc1C (stereo not given),"15.8 µM [falling, partial curve]"
17,CC1CN(C(c2cccs2)c2sc3ncnn3c2O)CC(C)O1 (stereo not given),"12.6 µM [rising, partial curve]"
18,CC(C)CCNC(=O)c1c[nH]c2ccc(S(=O)(=O)Nc3cccc(C(F)(F)F)c3)cc2c1=O,"12.6 µM [falling, partial curve]"
19,CCOc1ccc2cc(C#N)c(SCC(=O)N3CCC(C)CC3)nc2c1,"25.1 µM [falling, partial curve]"
20,COc1ccc(C(CNC(=O)c2oc3ccccc3c2C)N2CCCCC2)cc1 (stereo not given),"39.8 µM [falling, single point]"

# Two of the compounds above, with tabs:
row	SMILES	AC50
17	CC1CN(C(c2cccs2)c2sc3ncnn3c2O)CC(C)O1 (stereo not given)	12.6 µM [rising, partial curve]
18	CC(C)CCNC(=O)c1c[nH]c2ccc(S(=O)(=O)Nc3cccc(C(F)(F)F)c3)cc2c1=O	12.6 µM [falling, partial curve]

# Further entries.

row,SMILES,AC50
1,CN1CCN(c2ncnc3ccc(-c4cccc(NS(C)(=O)=O)c4)cc23)CC1,"2.51 µM [rising, partial curve]"
2,CCc1c(C)sc2c1CCN(C(=O)Nc1ccccc1Cl)C2c1ccc(OC)cc1 (stereo not given),"7.94 µM [falling, full curve, poor fit]"
3,Cc1cc(-n2c(SCc3ccccc3F)nc3[nH]ncc3c2=O)ccc1Cl,"39.8 µM [falling, single point]"
4,COc1ccc(-c2csc(NC(C)=O)n2)cc1OC,"6.31 µM [rising, single point] [measured here: IkB-luc green channel]"
5,CS(=O)(=O)c1ncc(N(Cc2ccco2)Cc2cccs2)c(C(=O)Nc2ccccc2F)n1,"3.16 µM [falling, partial curve]"
6,CC1CCc2onc(C(=O)N3CCN(c4ccc(Cl)cc4)CC3)c2C1 (stereo not given),"7.94 µM [falling, partial curve]"
7,O=C(CCCCCNc1nc(=S)[nH]c2ccccc12)N1CCN(c2ccccn2)CC1,"31.6 µM [falling, partial curve]"
8,Cc1ccc(NC(=O)CCc2nc(-c3ccccc3F)no2)c(C)c1,"0.0794 µM [falling, full curve, poor fit]"
9,COc1cc(C(=O)Nc2sc3c(c2C#N)CCCC3)c(Br)c(OC)c1OC,"0.398 µM [rising, full curve]"
10,Cc1cccc(OCC(=O)Nc2nnc(S(=O)(=O)N3CCCCCC3)s2)c1,"3.16 µM [rising, partial curve]"
11,CS(=O)(=O)c1ncc(Cl)c(C(=O)N(Cc2ccc(Cl)cc2)Cc2ccco2)n1,"3.16 µM [falling, full curve]"
12,COc1cc(Cl)c(C)cc1NC(=O)c1c(C)oc2nc(C)nc(N3CCCC3)c12,"39.8 µM [falling, single point]"
13,CCc1nnc(NC(=O)CSc2nccn2Cc2ccccc2)s1,"39.8 µM [falling, partial curve, poor fit]"
14,O=C1CCCc2cc(S(=O)(=O)N3CCCC(C(=O)NCc4ccccc4Cl)C3)ccc2N1 (stereo not given),"3.98 µM [falling, full curve, poor fit]"
15,O=C(CSc1nc(-c2ccco2)nc2cc(=O)[nH]n12)Nc1ccc(F)cc1,"20 µM [falling, single point]"
16,COc1ccccc1NC(=O)C1=C(C)Nc2nnnn2C1c1cc(Br)ccc1OC (stereo not given),"25.1 µM [falling, single point]"
17,COc1ccc(C2CC(=O)Nc3cc4c(cc32)OCO4)c(OC)c1 (stereo not given),"39.8 µM [falling, single point]"
18,Cc1nc2nc(COc3ccccc3)[nH]n2c(=O)c1C,"7.94 µM [falling, partial curve]"
19,Cc1ccccc1OCC(=O)Nc1ccc2[nH]c(=O)sc2c1,"39.8 µM [falling, single point]"
20,CCOC(=O)N1CCC(NC(=O)c2ccc3c(c2)N(Cc2ccc(F)cc2)C(=O)c2ccccc2S3=O)CC1 (stereo not given),"12.6 µM [falling, partial curve]"
